For 65 compounds, AC50 and cell number change results are on record in PubChem BioAssay AID2685 (National Center for Advancing Translational Sciences (NCATS), 2010).

The other results are listed elsewhere or left out. Shown are side measurements of this screen, not its main read-out; they come without a call. Compounds called inactive in the main read-out are mostly missing here. The note in brackets gives the kind of curve behind each potency; many fits are weak.

This assay in a line: qHTS Assay for Lipid Storage Modulators in Drosophila S3 Cells.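 As to cell number change: cells counted by Cell Tracker Red CMTPX staining in the red channel.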 To be noted: BODIPY lipid droplet fluorescence, 18-24 h; for cell number change: measured here: cell count max response, cells fed with added oleic acid. An outline of the steps: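 Drosophila S3 cells loaded with oleic acid (400 uM, as added) and compounds at several concentrations; lipid droplets imaged by 488-nm laser-scanning cytometry, 500–530 nm intensity and object ratio to cell channel. Percent activity normalized to 20 uM Triacsin C.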
For orientation: Quantitative high-throughput screening tests each substance at several concentrations.

Setting [1] is: measured here: lipid fluorescence (Fed channel) AC50, cells fed with added oleic acid.
Where [2] appears, read: measured here: cell number channel AC50, cells fed with added oleic acid.

As usually defined, the AC50 is the concentration at which the activity in the assay is half-maximal. A higher AC50 goes with weaker potency. For `O=C(c1ccccc1)c1ccccc1C(=O)N1CCN(C(=O)c2ccccc2)CC1`, the AC50 under setting [1] is 0.00517 µM [rising, partial curve, poor fit].

As for `O=C(/C=C/c1ccccc1F)c1cccc([N+](=O)[O-])c1`, the cell number change was -37%. In addition, the AC50 under setting [2] was 0.326 µM [falling, partial curve, poor fit]. Also, the AC50 under setting [1] was 9.2 µM [falling, partial curve].

On to `CCCc1cc(C(=O)NNC(=S)NCc2ccccc2)cs1`, for which the cell number change is -117%. Besides, the AC50 under setting [2] is 20.6 µM [falling, partial curve]. The concentration at half-maximal activity (AC50) under setting [1] is 16.4 µM [falling, single point].

Consider `CS(=O)(=O)Nc1ccc(OCc2ccccc2)cc1`, for which the AC50 under setting [2] was 3.26 µM [falling, single point] and the concentration at half-maximal activity (AC50) under setting [1] is 29.1 µM [rising, single point].

On to `O=C(CSc1ccccn1)Nc1nc2ccccc2s1`, for which the cell number change is 17%. For the same compound, the AC50 under setting [1] is 2.91 µM [rising, partial curve].

`O=C(NC1CC2CCCC(C1)N2C(=O)Nc1ccccc1)c1ccccc1` (centres undefined): the cell number change was found to be 16.7%. Moreover, the half-maximal activity concentration (AC50) under setting [1] was 11.6 µM [rising, single point].

As to `O=C(COC(=O)c1ccc([N+](=O)[O-])o1)c1ccccc1`, the cell number change is -8.04%. For the same compound, the AC50 under setting [1] is 32.6 µM [rising, single point].

For the compound `CCc1ccc(O)c(-c2cc(C(=O)Nc3cccnc3)[nH]n2)c1`, the cell number change was -1.81%.

As for `O=C(Cc1ccc(Br)cc1)N1CCN(c2ccccc2)CC1`, the cell number change amounted to 19.8%.

As for `Oc1ccc(N=Nc2c(O)ccc3ccccc23)cc1`, the cell number change was -155%. For the same compound, the half-maximal activity concentration (AC50) under setting [2] was 20.6 µM [falling, single point]. For the same compound, the AC50 under setting [1] is 23.1 µM [falling, single point].

Take `c1ccc(-c2csc(N3CCc4ccccc4C3)n2)cc1`: the cell number change was found to be 22%.

In the case of `NS(=O)(=O)c1cccc(NS(=O)(=O)c2cccc(C(F)(F)F)c2)c1`, the cell number change is 5.03%. The concentration at half-maximal activity (AC50) under setting [2] is 1.3 µM [falling, full curve, poor fit]. Also, under setting [1], the AC50 was 1.84 µM [falling, full curve].

In the case of `Cc1ccc(N(C(=O)C(F)(F)F)C(C(=O)NC2CCCCC2)c2cccs2)cc1C` (centres undefined), the cell number change is 17.5%. Under setting [1], the AC50 is 3.26 µM [rising, single point].

For the compound `O=C(Nc1ccc(Oc2cccc(C(F)(F)F)c2)nc1)c1ccccc1`, the cell number change is -23.3%.

`COC(=O)C(CC(C(=O)OC)C(=O)OC)C(=O)OC`: the cell number change was -10%. For the same compound, under setting [1], the AC50 is 0.184 µM [rising, full curve, poor fit].

Regarding `CC(C)(C)C(=O)Nc1nc(=S)ss1`, the cell number change was -17.9%. For the same compound, the half-maximal activity concentration (AC50) under setting [1] is 32.6 µM [falling, partial curve, poor fit].

On to `CN(CCc1ccccn1)c1ccc([N+](=O)[O-])cn1`, for which the cell number change was found to be 32.4%. Under setting [2], the half-maximal activity concentration (AC50) is 0.58 µM [rising, full curve, poor fit]. The AC50 under setting [1] was 1.16 µM [rising, partial curve].

On to `CN1CCn2c1nc(N1CCCCC1)nc2=O`, for which the cell number change was -1.16%. Besides, under setting [1], the AC50 was 0.461 µM [falling, full curve].

Consider `CC(C1CC1)N(Cc1ccccc1)C(=O)NC(=O)c1ccc(F)cc1` (centres undefined), for which the cell number change is -34.7%. Further, under setting [2], the half-maximal activity concentration (AC50) is 0.82 µM [falling, full curve, poor fit].

`CCOC(=O)C1CCN(C(=O)COc2ccc(N(C)S(=O)(=O)c3cccs3)cc2)CC1`: the cell number change was -11.7%.

Regarding `CCC(C)(C)n1nnnc1C(c1cc2cc(C)ccc2[nH]c1=O)N1CCCc2ccccc21` (centres undefined), the cell number change worked out at 90.4%.

As to `C#CCSc1nnc(-c2ccc(O)cc2)o1`, the cell number change worked out at 42.6%.

Take `CC(C)(C)n1ncc2c(=O)n(CC(=O)Nc3ccc4c(c3)OCO4)cnc21`: the cell number change was -10.6%. Moreover, under setting [1], the concentration at half-maximal activity (AC50) is 0.731 µM [rising, single point].

Regarding `O=C(OCc1nnc(-c2ccc(Cl)cc2)o1)c1ccncc1`, the cell number change was -2.45%.

As to `CN(C(=O)CCl)C1CCCc2ccccc21` (centres undefined), the cell number change came to 2.88%. Moreover, under setting [2], the half-maximal activity concentration (AC50) is 5.8 µM [rising, single point]. The half-maximal activity concentration (AC50) under setting [1] is 6.51 µM [rising, single point].

On to `COCCCNC(=O)C(F)(F)C(F)(F)C(=O)NCCCOC`, for which the cell number change was -4.87%. Under setting [1], the AC50 is 1.84 µM [falling, full curve].

For the compound `CN(C1CCCCC1)S(=O)(=O)c1ccc(Cl)c(C(=O)O)c1`, the cell number change is -19%. The half-maximal activity concentration (AC50) under setting [1] was 0.651 µM [falling, full curve, poor fit].

Consider `Cc1ccccc1NC(=O)Nc1ccccc1Br`, for which the cell number change was determined as 144%.

For the compound `COc1ccc(S(=O)(=O)NCCSC(C)(C)C)cc1Cl`, the cell number change was -23.6%. Further, the concentration at half-maximal activity (AC50) under setting [1] was 0.116 µM [falling, single point].

`CCOC(=O)C(C)Oc1ccc2c(C)cc(=O)oc2c1C(C)=O` (centres undefined): the cell number change stood at 40.5%.

Consider `CC(=O)Nc1ccc(S(=O)(=O)Nc2nnc(C3CCCCC3)s2)cc1`, for which the AC50 under setting [1] is 4.61 µM [falling, partial curve].

As for `CCOC(=O)c1c(NC(=O)Cn2nc(C(F)(F)F)cc2C)sc2c1CCC2`, the cell number change turned out to be 7.62%. Under setting [1], the AC50 is 29.1 µM [rising, partial curve, poor fit].

Consider `O=C(c1ccc2ccccc2c1)N1CCN(c2ccccn2)CC1`, for which the cell number change was -1.59%. In addition, the half-maximal activity concentration (AC50) under setting [1] is 29.1 µM [rising, single point].

Regarding `CCOc1ncccc1C(=O)Nc1ccc2c(c1)OCO2`, the cell number change worked out at 109%. For the same compound, the half-maximal activity concentration (AC50) under setting [2] is 0.82 µM [rising, partial curve, poor fit].

Turning to `Cc1cc2c(NC3CCCCC3)ncnc2s1`, the cell number change was -22.1%.

In the case of `COc1ccc(C(=O)CSc2nnc(-c3cnccn3)n2Cc2ccco2)cc1`, the cell number change is 9.05%.

On to `COc1ccc(C(=O)Nc2cnn(Cc3ccc(Cl)cc3)c2)cc1OC`, for which the cell number change is -0.918%. Under setting [1], the AC50 was 2.31 µM [rising, single point].

As to `COc1ccc(N2C(=O)CC2(/C=C/c2ccccc2OC)C(=O)NC2CCCC2)cc1` (centres undefined), the cell number change was -27.6%. In addition, under setting [1], the AC50 is 14.6 µM [falling, partial curve].

Take `Cc1nc2ccc(C(=O)Nc3ccc4nc[nH]c4c3)cc2[nH]1`: the cell number change was determined as 0.189%. Further, the concentration at half-maximal activity (AC50) under setting [1] was 3.26 µM [rising, partial curve, poor fit].

For `COc1nc(C)ccc1-c1noc(-c2ccccn2)n1`, the AC50 was 2.06 µM [rising, partial curve] under setting [2] and 2.06 µM [rising, partial curve] under setting [1].

In the case of `CCCCCN(C(=O)CCC(=O)OCC(=O)NCc1ccc(OC)cc1)c1c(N)n(CCCC)c(=O)[nH]c1=O`, the cell number change is -13.9%. The AC50 under setting [2] is 0.651 µM [rising, partial curve, poor fit]. Besides, under setting [1], the AC50 is 23.1 µM [falling, single point].

For the compound `O=C(CSc1nccc2ccccc12)N1CCN(c2ccccn2)CC1`, the cell number change is 92%. In addition, the AC50 under setting [2] is 2.91 µM [rising, full curve]. Besides, the AC50 under setting [1] is 5.17 µM [rising, partial curve].

For the compound `Cc1ccc(-n2nnnc2SCC(=O)N2CCN(C(=O)c3ccco3)CC2)c(C)c1`, the cell number change amounted to 53.1%. In addition, the concentration at half-maximal activity (AC50) under setting [2] was 29.1 µM [rising, single point]. Under setting [1], the AC50 was 29.1 µM [rising, single point].

In the case of `O=C(NC1CCCCC1)N(CCO)Cc1cc2cc3c(cc2[nH]c1=O)OCCO3`, the cell number change was found to be 39.1%. The AC50 under setting [2] was 16.4 µM [rising, single point].

As for `C=CCn1c(SCC(=O)Nc2c(C)n(C)n(-c3ccccc3)c2=O)nc2ccccc2c1=O`, the cell number change worked out at 32.1%. Besides, the half-maximal activity concentration (AC50) under setting [2] is 9.2 µM [rising, single point]. Moreover, the concentration at half-maximal activity (AC50) under setting [1] was 0.00461 µM [falling, full curve, poor fit].

`CCN(CC(=O)Nc1ccccc1Br)C1CCCCC1`: the cell number change turned out to be 3.17%.

Take `Cc1ccc(Oc2ccccc2/C=N/O)cc1`: under setting [1], the AC50 was 6.51 µM [falling, single point].

For `Cc1ccc(C(c2nnnn2CS(=O)(=O)c2ccc(C)cc2)N2CCC(C)CC2)cc1` (centres undefined), the AC50 under setting [1] was 0.82 µM [falling, full curve].

Regarding `Cc1nc(NC(=O)c2ccc([N+](=O)[O-])cc2Cl)sc1C(=O)N(C)C`, the AC50 under setting [1] is 1.3 µM [rising, full curve].

Turning to `Cc1ccc(CN2CCN(Cc3cc(=O)c4ccccc4[nH]3)CC2CCO)o1` (centres undefined), the cell number change came out at 4.34%. Moreover, the concentration at half-maximal activity (AC50) under setting [1] is 7.31 µM [rising, single point].

Regarding `CCOC(=O)C(=CNc1ccccc1Cl)C(=O)OCC`, the cell number change was 1.46%.

As for `CC(C)c1ccc(NC(=O)CN2CCN(C(=O)C3CCCO3)CC2)cc1` (centres undefined), the cell number change came to 22.2%. Further, under setting [1], the AC50 is 4.61 µM [rising, full curve].

`CC(=O)c1cccc(NC(=O)C2COc3ccccc3O2)c1` (centres undefined): the cell number change stood at 2.64%.

`O=C(NC1CC1)c1ccc(Cl)c(S(=O)(=O)N2CCOCC2)c1`: the cell number change was 25%.

As to `COCCNC(=O)c1ccc(NC(=O)C2(c3ccccc3)CCCC2)cc1`, the cell number change is -13.5%. For the same compound, the concentration at half-maximal activity (AC50) under setting [1] was 0.58 µM [falling, single point].

As to `COCc1ccc(CN2CCCC(CCC(=O)NCc3cccc(OC)c3)C2)o1` (centres undefined), the cell number change stood at 36.3%. For the same compound, under setting [2], the AC50 is 29.1 µM [rising, single point].

Consider `Cc1ccc2cc(C3CC(c4ccco4)=NN3C(=O)CCC(=O)O)c(Cl)nc2c1` (centres undefined), for which the cell number change was -24.9%.

With `CCC1CCCCN1C(=O)COc1ccc2c3c(c(=O)oc2c1)CCC3` (centres undefined), the cell number change is -1.23%. Also, the half-maximal activity concentration (AC50) under setting [2] is 0.82 µM [falling, full curve]. Moreover, the concentration at half-maximal activity (AC50) under setting [1] is 0.259 µM [falling, full curve].

For `COc1ccc(C(=O)c2ccccc2)c2c(O)ccc(C(=O)c3ccccc3)c12`, the cell number change stood at 2.73%. In addition, the half-maximal activity concentration (AC50) under setting [2] was 0.164 µM [falling, full curve, poor fit].

Take `C=C1C2(C(=O)NCc3ccco3)CCC(C2)C1(C)C` (centres undefined): the cell number change was -0.376%. Under setting [1], the concentration at half-maximal activity (AC50) was 0.116 µM [falling, full curve].

For the compound `O=C(O)c1cc(S(=O)(=O)Nc2cc(Cl)ccc2Oc2ccccc2)ccc1O`, the cell number change was -18.7%. The concentration at half-maximal activity (AC50) under setting [1] was 0.184 µM [rising, full curve].

`CC(C)NS(=O)(=O)c1ccc(CCC(=O)NCc2cccnc2)cc1`: the cell number change was -1.21%. Further, under setting [1], the AC50 was 0.92 µM [falling, full curve, poor fit].

Turning to `CCNS(=O)(=O)c1ccc(CCC(=O)NCc2ccccn2)cc1`, the cell number change was -7.3%. The half-maximal activity concentration (AC50) under setting [1] was 29.1 µM [rising, single point].

Turning to `O=c1[nH]c2ccccc2nc1N1CCOCC1`, the cell number change turned out to be 19.4%.

As to `C=CCN1c2ccccc2[C@]23C[C@@H](C(=O)OC)N(C(=O)c4cc(C)oc4C)C2=NC(C(=O)OC)=C(C(=O)OC)[C@H]13`, the cell number change is -62.8%. Moreover, under setting [2], the AC50 was 1.16 µM [falling, full curve]. Also, the AC50 under setting [1] was 1.03 µM [falling, full curve].
